{"source": "PubChem BioAssay AID652243, Drosophila RNAi Screening Center, 2013", "aim": "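Fly regulators of androgen-dependent reporter output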 (primary screen)", "system": "Drosophila S2R+ cells", "reagent": "long dsRNA against Drosophila genes", "time to read-out": "72 h (48 h, then 24 h hormone)", "challenge": "synthetic androgen R1881 at 10 nM for 24 h", "measurement": "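Per-well raw luminescence of the androgen-driven firefly reporter and of the Renilla control, two replicates each, without normalisation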", "direction": "firefly reporter light: higher = more light from androgen-responsive reporter; Renilla control light: higher = more constitutive control signal (cell number, transfection)", "rule for the call": "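Hit when the log firefly-to-Renilla ratio dropped or increased by a fixed fold versus the mean of GFP or LacZ controls across duplicate plates; lowering cut given as 1.5 and as 3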", "calls": "active = hit: reporter lowered or raised; inactive = no hit", "note": "In all, the deposit lists about 24,000 reagents; shown is a random part of those that have a named target and a result. In the full data, 246 (1%) were called active. 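Plates not normalised; calls are printed but the firefly/Renilla ratio behind them is not deposited; fold cut for lowering reported inconsistently.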 Raw values are not corrected between plates. Reagents against one gene are numbered here. Not stated in the record: the amount of reagent."}
{"Target gene": "CG13204 (GeneID 36227)", "dsRNA no.": 1, "firefly reporter light, replicate 1": 2.22e5, "firefly reporter light, replicate 2": 1.08e5, "Renilla control light, replicate 1": 1.17e6, "Renilla control light, replicate 2": 8.26e5, "activity call": "inactive"}
{"Target gene": "CG13204 (GeneID 36227)", "dsRNA no.": 2, "firefly reporter light, replicate 1": 4.18e5, "firefly reporter light, replicate 2": 3.67e5, "Renilla control light, replicate 1": 2.01e6, "Renilla control light, replicate 2": 1.38e6, "activity call": "inactive"}
{"Target gene": "ninaC (GeneID 34012)", "dsRNA no.": 1, "firefly reporter light, replicate 1": 9.04e5, "firefly reporter light, replicate 2": 9.19e5, "Renilla control light, replicate 1": 1.66e6, "Renilla control light, replicate 2": 1.84e6, "activity call": "inactive"}
{"Target gene": "ninaC (GeneID 34012)", "dsRNA no.": 2, "firefly reporter light, replicate 1": 8.22e5, "firefly reporter light, replicate 2": 2.72e5, "Renilla control light, replicate 1": 1.30e6, "Renilla control light, replicate 2": 5.72e5, "activity call": "inactive"}
{"Target gene": "ninaC (GeneID 34012)", "dsRNA no.": 3, "activity call": "inactive"}
{"Target gene": "Cyp6a16Psi (retired record) (GeneID 3772661)", "dsRNA no.": 1, "firefly reporter light, replicate 1": 70130, "firefly reporter light, replicate 2": 1.23e5, "Renilla control light, replicate 1": 9.78e5, "Renilla control light, replicate 2": 1.15e6, "activity call": "inactive"}
{"Target gene": "CG18764 (GeneID 59239)", "dsRNA no.": 1, "firefly reporter light, replicate 1": 1.14e5, "firefly reporter light, replicate 2": 1.93e5, "Renilla control light, replicate 1": 1.52e6, "Renilla control light, replicate 2": 1.41e6, "activity call": "inactive"}
{"Target gene": "Oatp33Ea (GeneID 34660)", "dsRNA no.": 1, "firefly reporter light, replicate 1": 7.82e5, "firefly reporter light, replicate 2": 8.81e5, "Renilla control light, replicate 1": 8.85e5, "Renilla control light, replicate 2": 1.44e6, "activity call": "inactive"}
{"Target gene": "Oatp33Ea (GeneID 34660)", "dsRNA no.": 2, "firefly reporter light, replicate 1": 3.58e5, "firefly reporter light, replicate 2": 3.68e5, "Renilla control light, replicate 1": 5.06e5, "Renilla control light, replicate 2": 7.23e5, "activity call": "inactive"}

Reformatted: results already given.
Target gene	dsRNA no.	firefly reporter light, replicate 1	firefly reporter light, replicate 2	Renilla control light, replicate 1	Renilla control light, replicate 2	activity call
CG18764 (GeneID 59239)	1	1.14e5	1.93e5	1.52e6	1.41e6	inactive
Oatp33Ea (GeneID 34660)	1	7.82e5	8.81e5	8.85e5	1.44e6	inactive

Additional entries follow:
{"Target gene": "Nep2 (GeneID 40588)", "dsRNA no.": 1, "firefly reporter light, replicate 1": 36808, "firefly reporter light, replicate 2": 49292, "Renilla control light, replicate 1": 4.22e5, "Renilla control light, replicate 2": 3.38e5, "activity call": "inactive"}
{"Target gene": "Nep2 (GeneID 40588)", "dsRNA no.": 2, "firefly reporter light, replicate 1": 6.09e5, "firefly reporter light, replicate 2": 6.11e5, "Renilla control light, replicate 1": 1.46e6, "Renilla control light, replicate 2": 1.30e6, "activity call": "inactive"}
{"Target gene": "CG12035 (GeneID 38217)", "dsRNA no.": 1, "firefly reporter light, replicate 1": 6.36e5, "firefly reporter light, replicate 2": 6.29e5, "Renilla control light, replicate 1": 8.87e5, "Renilla control light, replicate 2": 9.57e5, "activity call": "inactive"}
{"Target gene": "Npc2a (GeneID 33374)", "dsRNA no.": 1, "firefly reporter light, replicate 1": 58478, "firefly reporter light, replicate 2": 52923, "Renilla control light, replicate 1": 3.93e5, "Renilla control light, replicate 2": 3.74e5, "activity call": "inactive"}
{"Target gene": "MP1 (GeneID 40541)", "dsRNA no.": 1, "firefly reporter light, replicate 1": 8.29e5, "firefly reporter light, replicate 2": 1.02e6, "Renilla control light, replicate 1": 1.95e6, "Renilla control light, replicate 2": 2.24e6, "activity call": "inactive"}
{"Target gene": "MP1 (GeneID 40541)", "dsRNA no.": 2, "firefly reporter light, replicate 1": 4.22e5, "firefly reporter light, replicate 2": 8.66e5, "Renilla control light, replicate 1": 7.48e5, "Renilla control light, replicate 2": 1.54e6, "activity call": "inactive"}
{"Target gene": "ct (GeneID 44540)", "dsRNA no.": 1, "firefly reporter light, replicate 1": 26949, "firefly reporter light, replicate 2": 25793, "Renilla control light, replicate 1": 4.99e5, "Renilla control light, replicate 2": 3.98e5, "activity call": "inactive"}
{"Target gene": "ct (GeneID 44540)", "dsRNA no.": 2, "firefly reporter light, replicate 1": 9.36e5, "firefly reporter light, replicate 2": 4.33e5, "Renilla control light, replicate 1": 6.01e5, "Renilla control light, replicate 2": 5.42e5, "activity call": "inactive"}
{"Target gene": "Fit1 (GeneID 38488)", "dsRNA no.": 1, "firefly reporter light, replicate 1": 1.34e6, "firefly reporter light, replicate 2": 1.07e6, "Renilla control light, replicate 1": 1.20e6, "Renilla control light, replicate 2": 1.43e6, "activity call": "inactive"}
{"Target gene": "Fit1 (GeneID 38488)", "dsRNA no.": 2, "firefly reporter light, replicate 1": 6.53e5, "firefly reporter light, replicate 2": 8.62e5, "Renilla control light, replicate 1": 8.28e5, "Renilla control light, replicate 2": 7.71e5, "activity call": "inactive"}
{"Target gene": "Cdc14 (GeneID 34067)", "dsRNA no.": 1, "firefly reporter light, replicate 1": 1.91e5, "firefly reporter light, replicate 2": 2.06e5, "Renilla control light, replicate 1": 1.43e6, "Renilla control light, replicate 2": 1.29e6, "activity call": "inactive"}
{"Target gene": "Cdc14 (GeneID 34067)", "dsRNA no.": 2, "firefly reporter light, replicate 1": 3.11e5, "firefly reporter light, replicate 2": 2.57e5, "Renilla control light, replicate 1": 5.54e5, "Renilla control light, replicate 2": 7.41e5, "activity call": "inactive"}
{"Target gene": "Cdc14 (GeneID 34067)", "dsRNA no.": 3, "activity call": "inactive"}
